Here are results for 28 targets from the supplement of paper PMC12595434, “Development of retinoid nuclear receptor pathway antagonists through targeting aldehyde dehydrogenase 1A3” (iScience, 2025).

Protein sequences, listed by entry. Tags and fused reporters are not part of them. Lines headed by an entry give the natural chain unless they say otherwise; changes in a name come on top.
UniProt Q9BQE5: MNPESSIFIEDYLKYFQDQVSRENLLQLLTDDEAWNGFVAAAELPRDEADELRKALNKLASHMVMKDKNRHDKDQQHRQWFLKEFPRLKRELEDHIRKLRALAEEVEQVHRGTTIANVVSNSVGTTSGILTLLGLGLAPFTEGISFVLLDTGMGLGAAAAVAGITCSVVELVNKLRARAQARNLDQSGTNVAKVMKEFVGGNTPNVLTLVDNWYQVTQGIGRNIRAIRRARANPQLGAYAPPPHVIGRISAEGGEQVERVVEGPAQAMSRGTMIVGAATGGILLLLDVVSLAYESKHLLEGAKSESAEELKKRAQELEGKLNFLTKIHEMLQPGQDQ
UniProt Q9BPU6: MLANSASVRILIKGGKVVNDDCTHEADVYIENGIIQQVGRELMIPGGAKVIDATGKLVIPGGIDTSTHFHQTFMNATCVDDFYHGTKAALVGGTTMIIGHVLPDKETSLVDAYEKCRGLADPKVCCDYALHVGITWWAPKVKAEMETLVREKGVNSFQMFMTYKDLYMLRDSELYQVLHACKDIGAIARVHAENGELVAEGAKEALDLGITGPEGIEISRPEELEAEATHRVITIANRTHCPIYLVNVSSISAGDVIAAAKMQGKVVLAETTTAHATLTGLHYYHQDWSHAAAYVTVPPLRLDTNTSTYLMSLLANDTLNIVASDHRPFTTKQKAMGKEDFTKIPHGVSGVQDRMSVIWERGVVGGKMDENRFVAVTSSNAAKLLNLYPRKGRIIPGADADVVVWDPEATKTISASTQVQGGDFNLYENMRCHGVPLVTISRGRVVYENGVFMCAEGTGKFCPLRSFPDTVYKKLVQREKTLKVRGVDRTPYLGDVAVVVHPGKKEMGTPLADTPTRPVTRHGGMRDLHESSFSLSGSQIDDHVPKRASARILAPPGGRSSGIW
UniProt Q9BRQ6: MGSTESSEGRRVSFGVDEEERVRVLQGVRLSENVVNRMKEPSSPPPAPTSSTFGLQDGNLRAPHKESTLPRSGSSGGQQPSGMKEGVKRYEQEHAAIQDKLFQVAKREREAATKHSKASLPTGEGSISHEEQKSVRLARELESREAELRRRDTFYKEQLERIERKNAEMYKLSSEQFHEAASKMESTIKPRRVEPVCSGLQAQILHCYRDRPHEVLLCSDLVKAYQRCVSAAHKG
UniProt Q9BUR5: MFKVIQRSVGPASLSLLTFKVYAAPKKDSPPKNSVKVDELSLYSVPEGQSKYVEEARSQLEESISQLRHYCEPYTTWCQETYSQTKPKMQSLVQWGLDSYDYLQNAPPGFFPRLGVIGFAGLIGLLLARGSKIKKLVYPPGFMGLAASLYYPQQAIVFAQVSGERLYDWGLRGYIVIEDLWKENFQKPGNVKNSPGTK
UniProt Q9BY49: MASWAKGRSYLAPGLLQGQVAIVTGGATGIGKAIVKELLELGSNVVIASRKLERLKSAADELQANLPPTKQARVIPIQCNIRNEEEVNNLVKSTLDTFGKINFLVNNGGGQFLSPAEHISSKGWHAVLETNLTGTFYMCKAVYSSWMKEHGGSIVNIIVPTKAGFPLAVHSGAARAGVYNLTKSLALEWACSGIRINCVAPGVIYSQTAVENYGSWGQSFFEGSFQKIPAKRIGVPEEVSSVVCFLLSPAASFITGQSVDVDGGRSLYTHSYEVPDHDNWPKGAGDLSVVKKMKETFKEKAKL
UniProt Q9BV23: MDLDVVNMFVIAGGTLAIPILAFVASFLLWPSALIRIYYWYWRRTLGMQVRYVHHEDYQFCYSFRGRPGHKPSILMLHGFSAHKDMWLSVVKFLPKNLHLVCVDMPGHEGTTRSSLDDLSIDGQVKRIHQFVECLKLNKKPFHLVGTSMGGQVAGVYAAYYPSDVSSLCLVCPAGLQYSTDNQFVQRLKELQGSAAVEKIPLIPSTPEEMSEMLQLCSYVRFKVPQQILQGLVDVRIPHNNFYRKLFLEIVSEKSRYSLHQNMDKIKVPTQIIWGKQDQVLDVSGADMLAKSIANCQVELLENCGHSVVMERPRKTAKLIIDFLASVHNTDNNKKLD
UniProt Q99747: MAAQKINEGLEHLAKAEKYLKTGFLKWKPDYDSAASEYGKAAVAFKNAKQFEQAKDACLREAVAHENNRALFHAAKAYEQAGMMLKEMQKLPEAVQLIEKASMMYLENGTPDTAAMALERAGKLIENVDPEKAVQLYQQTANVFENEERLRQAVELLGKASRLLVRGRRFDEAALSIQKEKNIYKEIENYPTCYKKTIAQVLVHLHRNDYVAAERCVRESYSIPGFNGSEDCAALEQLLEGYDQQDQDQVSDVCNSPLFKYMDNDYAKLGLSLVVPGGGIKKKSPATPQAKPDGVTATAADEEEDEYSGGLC
UniProt Q9BUL9: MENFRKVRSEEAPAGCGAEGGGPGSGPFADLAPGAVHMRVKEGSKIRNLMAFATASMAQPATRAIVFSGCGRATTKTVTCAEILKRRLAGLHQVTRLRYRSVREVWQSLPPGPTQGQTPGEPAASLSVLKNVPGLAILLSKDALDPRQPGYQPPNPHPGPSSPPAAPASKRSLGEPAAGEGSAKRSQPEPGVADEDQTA
UniProt Q9BW27: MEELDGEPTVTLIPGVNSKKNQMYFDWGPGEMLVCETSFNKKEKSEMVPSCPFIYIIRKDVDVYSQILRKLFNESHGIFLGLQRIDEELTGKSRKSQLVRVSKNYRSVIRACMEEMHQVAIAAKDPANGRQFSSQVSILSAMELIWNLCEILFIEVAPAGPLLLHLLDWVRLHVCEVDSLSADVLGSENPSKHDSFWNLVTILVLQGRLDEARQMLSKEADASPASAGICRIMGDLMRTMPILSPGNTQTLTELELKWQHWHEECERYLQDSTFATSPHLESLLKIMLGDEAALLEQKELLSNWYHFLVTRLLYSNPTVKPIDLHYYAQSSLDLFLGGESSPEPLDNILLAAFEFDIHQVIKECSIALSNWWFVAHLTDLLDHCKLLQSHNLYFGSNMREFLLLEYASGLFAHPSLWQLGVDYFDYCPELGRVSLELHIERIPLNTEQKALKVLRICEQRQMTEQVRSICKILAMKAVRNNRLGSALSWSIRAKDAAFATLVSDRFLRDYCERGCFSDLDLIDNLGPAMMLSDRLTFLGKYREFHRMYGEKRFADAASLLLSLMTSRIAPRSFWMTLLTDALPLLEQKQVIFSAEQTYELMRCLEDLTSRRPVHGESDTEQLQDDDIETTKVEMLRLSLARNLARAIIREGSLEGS
UniProt Q9BQG2: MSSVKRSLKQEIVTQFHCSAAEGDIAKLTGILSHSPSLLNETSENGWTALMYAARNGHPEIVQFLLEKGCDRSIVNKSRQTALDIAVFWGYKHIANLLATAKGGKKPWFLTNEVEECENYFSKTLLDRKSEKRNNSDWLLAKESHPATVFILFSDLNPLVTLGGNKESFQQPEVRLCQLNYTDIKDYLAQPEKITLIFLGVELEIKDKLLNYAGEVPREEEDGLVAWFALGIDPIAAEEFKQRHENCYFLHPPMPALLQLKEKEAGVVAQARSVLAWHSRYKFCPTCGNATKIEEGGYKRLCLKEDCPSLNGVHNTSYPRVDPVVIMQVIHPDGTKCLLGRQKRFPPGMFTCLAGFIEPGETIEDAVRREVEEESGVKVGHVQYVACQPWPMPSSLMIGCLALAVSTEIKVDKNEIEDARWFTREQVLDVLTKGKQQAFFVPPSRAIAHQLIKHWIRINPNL
UniProt Q99865, whole entry: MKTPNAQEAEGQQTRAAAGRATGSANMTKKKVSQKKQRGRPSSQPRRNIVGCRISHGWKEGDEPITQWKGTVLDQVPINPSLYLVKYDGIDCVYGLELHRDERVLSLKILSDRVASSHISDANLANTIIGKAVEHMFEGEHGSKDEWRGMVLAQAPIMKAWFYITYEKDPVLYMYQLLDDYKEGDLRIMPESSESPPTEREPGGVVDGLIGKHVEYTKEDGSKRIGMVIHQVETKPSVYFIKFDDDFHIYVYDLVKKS
UniProt Q9BRP8: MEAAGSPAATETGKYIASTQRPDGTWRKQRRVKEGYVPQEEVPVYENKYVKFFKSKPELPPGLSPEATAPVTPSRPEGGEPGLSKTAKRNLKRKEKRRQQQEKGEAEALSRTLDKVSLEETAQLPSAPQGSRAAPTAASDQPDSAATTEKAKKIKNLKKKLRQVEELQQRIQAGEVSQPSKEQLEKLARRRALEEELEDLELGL
UniProt Q9BRT2: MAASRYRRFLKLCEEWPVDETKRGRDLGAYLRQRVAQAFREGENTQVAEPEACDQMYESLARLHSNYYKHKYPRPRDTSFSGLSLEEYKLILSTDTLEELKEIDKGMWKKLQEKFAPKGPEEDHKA
UniProt Q9BUB7: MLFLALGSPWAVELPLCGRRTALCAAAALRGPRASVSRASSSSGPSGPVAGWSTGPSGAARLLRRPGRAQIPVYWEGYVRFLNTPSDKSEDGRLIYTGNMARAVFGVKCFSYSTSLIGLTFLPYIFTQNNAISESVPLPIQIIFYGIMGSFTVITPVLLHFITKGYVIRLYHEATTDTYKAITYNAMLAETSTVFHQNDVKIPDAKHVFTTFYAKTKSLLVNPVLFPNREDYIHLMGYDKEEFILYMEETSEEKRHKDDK
UniProt Q99598: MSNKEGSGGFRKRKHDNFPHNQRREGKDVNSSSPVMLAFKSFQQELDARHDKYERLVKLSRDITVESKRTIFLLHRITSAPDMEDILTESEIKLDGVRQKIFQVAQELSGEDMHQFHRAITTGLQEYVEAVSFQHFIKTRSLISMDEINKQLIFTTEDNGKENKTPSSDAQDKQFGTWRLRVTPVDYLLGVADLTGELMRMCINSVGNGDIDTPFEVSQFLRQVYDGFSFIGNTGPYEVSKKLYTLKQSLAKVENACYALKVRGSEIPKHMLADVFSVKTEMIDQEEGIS
UniProt Q9BSU1: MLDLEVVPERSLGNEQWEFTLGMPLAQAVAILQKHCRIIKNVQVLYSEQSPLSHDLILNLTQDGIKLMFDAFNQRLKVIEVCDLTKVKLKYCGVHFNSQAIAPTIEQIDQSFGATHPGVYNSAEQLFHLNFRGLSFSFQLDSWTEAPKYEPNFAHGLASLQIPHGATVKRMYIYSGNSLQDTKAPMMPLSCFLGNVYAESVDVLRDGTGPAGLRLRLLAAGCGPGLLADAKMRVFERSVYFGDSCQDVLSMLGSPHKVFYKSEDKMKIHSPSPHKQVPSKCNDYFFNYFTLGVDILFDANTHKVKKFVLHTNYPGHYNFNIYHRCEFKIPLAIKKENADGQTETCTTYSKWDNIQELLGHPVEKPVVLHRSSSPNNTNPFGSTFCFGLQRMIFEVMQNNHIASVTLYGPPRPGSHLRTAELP
UniProt Q99836, whole entry: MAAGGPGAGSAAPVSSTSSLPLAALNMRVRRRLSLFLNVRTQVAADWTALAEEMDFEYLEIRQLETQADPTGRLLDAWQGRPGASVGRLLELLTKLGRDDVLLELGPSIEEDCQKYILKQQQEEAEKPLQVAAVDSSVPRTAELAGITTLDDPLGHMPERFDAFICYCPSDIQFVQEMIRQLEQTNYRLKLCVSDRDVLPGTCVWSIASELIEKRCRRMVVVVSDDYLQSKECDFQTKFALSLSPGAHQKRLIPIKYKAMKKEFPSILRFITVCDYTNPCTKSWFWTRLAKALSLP
UniProt Q9BU76: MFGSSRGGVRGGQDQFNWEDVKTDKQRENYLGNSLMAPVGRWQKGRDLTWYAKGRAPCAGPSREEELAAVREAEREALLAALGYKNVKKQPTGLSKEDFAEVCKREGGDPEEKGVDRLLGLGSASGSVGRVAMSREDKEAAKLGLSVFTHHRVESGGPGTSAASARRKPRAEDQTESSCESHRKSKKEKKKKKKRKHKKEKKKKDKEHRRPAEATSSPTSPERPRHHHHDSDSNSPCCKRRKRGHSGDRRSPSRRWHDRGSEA
UniProt Q9BSH5: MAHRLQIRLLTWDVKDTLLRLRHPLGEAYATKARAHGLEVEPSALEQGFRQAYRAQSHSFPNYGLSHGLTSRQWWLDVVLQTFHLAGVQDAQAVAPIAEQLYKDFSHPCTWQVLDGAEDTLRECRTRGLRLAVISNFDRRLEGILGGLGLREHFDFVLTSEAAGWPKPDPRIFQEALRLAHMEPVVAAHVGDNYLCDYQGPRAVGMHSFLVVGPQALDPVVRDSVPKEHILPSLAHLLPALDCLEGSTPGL
UniProt Q9BWL3: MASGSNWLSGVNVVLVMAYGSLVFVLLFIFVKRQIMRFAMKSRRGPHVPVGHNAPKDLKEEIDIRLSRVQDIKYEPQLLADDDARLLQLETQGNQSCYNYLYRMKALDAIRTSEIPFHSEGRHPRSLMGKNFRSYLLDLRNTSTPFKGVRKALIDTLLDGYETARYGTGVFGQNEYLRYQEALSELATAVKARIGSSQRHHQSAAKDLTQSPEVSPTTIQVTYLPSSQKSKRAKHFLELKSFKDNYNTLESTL

Compound in the experiment: CCc1cnccc1C(=O)Nc1cc2c(cc1F)NC(=O)CC2
Kind of experiment: melting temperature shift (DMSO Tm minus MBE1-treated Tm) in cellular thermal proteome profiling; higher = less thermal stabilization by MBE1 (negative = stabilized by MBE1). The conditions noted are these: A375.

Some of the results follow. This is a noisy data set.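 Tm was set to 64 °C where no melting was found, and many curves are irregular.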

As to APOL2 (UniProt Q9BQE5), the melting temperature shift by setting is: (MBE1 concentration: 100 nM) 0.207 °C; (MBE1 concentration: 1 uM) -0.427 °C. For UniProt Q9BRR3 the same measures were -0.711 °C and -0.825 °C. For UniProt Q9BPU6 the same measures were 0.235 °C and 0.299 °C.

Consider CHCHD6 (UniProt Q9BRQ6), for which the melting temperature shift (MBE1 concentration: 100 nM) is -3.03 °C and the melting temperature shift (MBE1 concentration: 1 uM) was -1.88 °C. On to APOO (UniProt Q9BUR5), for which the melting temperature shift (MBE1 concentration: 1 uM) was -2.76 °C. Same read-out and setting: the same measure for UniProt Q9BY49: 1.01 °C. On to ABHD6 (UniProt Q9BV23), for which the melting temperature shift (MBE1 concentration: 100 nM) was 0.281 °C and the melting temperature shift (MBE1 concentration: 1 uM) is -1.23 °C. For NAPG (UniProt Q99747), the melting temperature shift reads like this: (MBE1 concentration: 100 nM) -0.574 °C; (MBE1 concentration: 1 uM) -0.315 °C. On the same counts, the results for RPP25 (UniProt Q9BUL9) are -1.95 °C and 0.189 °C. Regarding NUP85 (UniProt Q9BW27), the melting temperature shift was 1.28 °C (MBE1 concentration: 100 nM) and 0.586 °C (MBE1 concentration: 1 uM). In the case of UniProt Q99550, the melting temperature shift (MBE1 concentration: 1 uM) is -2.04 °C.

For the target NUDT12 (UniProt Q9BQG2), the melting temperature shift (MBE1 concentration: 100 nM) was 0.464 °C and the melting temperature shift (MBE1 concentration: 1 uM) came to 0.11 °C. For INPP5K (UniProt Q9BT40) the same measures were 0.934 °C and 0.885 °C.

For LMF2 (UniProt Q9BU23), the melting temperature shift (MBE1 concentration: 100 nM) is -0.845 °C.

Regarding UniProt Q99865, the melting temperature shift is 0.362 °C (MBE1 concentration: 100 nM) and -0.128 °C (MBE1 concentration: 1 uM). Consider PYM1 (UniProt Q9BRP8), for which the melting temperature shift (MBE1 concentration: 1 uM) was -3 °C.

On to UQCC2 (UniProt Q9BRT2), for which the melting temperature shift by setting is: (MBE1 concentration: 100 nM) -0.22 °C; (MBE1 concentration: 1 uM) -0.575 °C. For TMEM70 (UniProt Q9BUB7) the same measures were -1.23 °C and 0.00671 °C. For TSNAX (UniProt Q99598) the same measures were -1.47 °C and -0.891 °C.

As to UniProt Q9BSU1, the melting temperature shift runs as follows: (MBE1 concentration: 100 nM) -0.464 °C; (MBE1 concentration: 1 uM) -0.0244 °C. As for UniProt Q99836, where the note is “MBE1 concentration: 100 nM”, the melting temperature shift was -0.63 °C.

As for MMTAG2 (UniProt Q9BU76), the melting temperature shift (MBE1 concentration: 100 nM) was -2.41 °C and the melting temperature shift (MBE1 concentration: 1 uM) was -5.29 °C. For HDHD3 (UniProt Q9BSH5) the same measures were -1.34 °C and -1.19 °C. On the same counts, the results for TACO1 (UniProt Q9BSH4) are -0.715 °C and 0.194 °C. In the case of MKNK1 (UniProt Q9BUB5), under “MBE1 concentration: 100 nM”, the melting temperature shift is -0.366 °C.

With UniProt Q9BWL3, the melting temperature shift (MBE1 concentration: 100 nM) was 0.492 °C. Take ELAC2 (UniProt Q9BQ52): the melting temperature shift is -2.43 °C (MBE1 concentration: 100 nM) and 1.2 °C (MBE1 concentration: 1 uM). For CECR5 (UniProt Q9BXW7) the same measures were 0.175 °C and -0.47 °C.
